No constants are given. Whether binding was seen depends on the method and setting. For part of these data: Binding can be weak; no strength is given. Where a sequence is shown, tags or fusion partners need not be part of it. For part of these data: In cells and extracts the contact can be indirect.

For assay [1], the target named is BD-Nesprin-1-165-859-1144 (mouse). Kind of assay: two-hybrid; Gal4 system, Nesprin-1-165 polypeptides as BD fusions (pGBKT7), Nesprin-3-ΔC as AD fusion (pGADT7), yeast strain Y190; growth on selection plates and filter lift β-galactosidase assay.
Assay [2] addresses BD-Nesprin-1-165-1145-1431 (mouse). The assay is described as above.
Assay [3] addresses BD-Nesprin-1-165-573-858 (mouse). The description is as above.
For assay [4], the target named is BD-Nesprin-1-165-ABD (mouse). Described as above.
For assay [5], the target named is GST-Nesprin-1-165-859-1144 (mouse). Kind of assay: pull-down; GST or GST-Nesprin-1-165 polypeptides coupled to Sepharose beads, incubated overnight at 4°C with lysates of transfected COS7 cells (50 mM Tris-HCl pH 7.5, 150 mM NaCl, 1% NP-40, 0.5% sodium desoxycholate, 1 mM DTT); western blot with GFP antibody mAb K3-184; only the target purified.
Assay [6] deals with GST-Nesprin-1-165-1-286 (mouse). The assay is described as above.
The target of assay [7] is GST-Nesprin-1-165-573-858 (mouse). The assay is described as above.
Assay [8] has as its target GST-Nesprin-1-165-1145-1431 (mouse). Described as above.

B1: AD-Nesprin-3-ΔC (domain or fragment, UniProt Q6ZMZ3 1-429)
chain: MTQQPQDDFDRSVEDAQAWMKAVQDQLQVNDNTQGPRAALEARLWETEKICQLEPEGRVRVDLVLRMAEALLACCPGDQKPGILARLKDIKAQWEETVTYMTHCHSRIEWVWLHWSEYLLARDEFYRWFQKMMVTLEPHIELQLGLKEKQWQLSHAQVLLHNVDNQAVLLDRLLEEAASLFNRIGDPSVDEDAQKRMKAEYDAVKAKAQKRVDLLEQVAREHEEYQAGVDEFQLWLKAVVEKVNGCLGRNCKLPITQRLSTLQDIAKDFPRGEESLETLEEQSAGVIRNTSPLGAEKITGELEEMRKVLEKLRALWEEEEERLRGLLRSRGAWEQQIKQLEAELSEFRMVLQRLAQEGLQPAAKAGTEDELVAHWRRYSATRAALASEEPRVDRLQAQLKELIVFPHNLKPLSDSVIATIQEYQSLKVK
With B1, the binding entry is recorded as “no binding” in assay [1], “binds” in assay [2], “binds” in assay [3] and “binds” in assay [4].

B2: Nesprin-1-165-GFP (aa 1-1431) (protein, UniProt Q6ZWR6-5 1-1431)
chain: MATSRASSRSHRDITNVMQRLQDEQEIVQKRTFTKWINSHLAKRKPPMVVDDLFEDMKDGIKLLALLEVLSGQKLPCEQGHRVKRIHAVANIGTALKFLEGRKSMYRGSPIKLVNINATDIADGRPSIVLGLMWTIILYFQIEELTSNLPQLQSLSSSASSVDSMVSTETASPPSKRKVAAKIQGNAKKTLLKWVQHTAGKQMGIEVKDFGKSWRTGLAFHSVIHAIQPELVDLEKVKTRSNRENLEDAFTIAETQLGIPRLLDPEDVDVDKPDEKSIMTYVAQFLTQYPDIHGAGCDGQEDDRDDRLILKETKVWIEQFERDFTRAQMTESSLQDKYQAFKHFRVQYEMKRKQVEHIIQPLQRDGKLTLDQALVKQCWERVSSRLFDWHIQLDKSLPAPLGTIGAWLYRAEVALREEITIQQVHEETANTIQRKLEQHKDLLQNTDAHKRAFHEIYQTRSVNGIPMPPDQLEDMAERFHFVSSTSELHLMKMEFLELKYRLLSLLVLAESKLKSWIIKYGRRESVELLLQSYISFIENSKFFEQYEVTYQILKQTADIYVKAEGSVEEAENVMKFMSEATAQWRNLSVEVRSVRSMLEEVISNWDRYGDTVASLQAWLEDAEKMLSQSEHAKKDFFRNLPHWIQQHTAMNDAGNFLIETCDEIVSRDLKQQLLLLNGRWRELFMEVKQYARADEMDRMKKEYIDVTTTLFGFATEAHRKLSEPLEVSFINVKLLIQDLEDLEKRVPVMDAQYKMIAKKAHLFAKESPQEEANEMLTTMSKLKEQLSKVKECCSPLLYEAQQLTVPLEELETQITSFYDSLGKINEILSVLEQEAQSSTLFKQKHQELLASQENCKKSLTLIEKGSQSVQKLVTSSQARKPWDHTKLQKQIADVHHAFQSMIKKTGDWKKHVEANSRLMKKFEESRAELEKVLRVAQEGLEEKGDPEELLRRHTEFFSQLDQRVLNAFLKACDELTDILPEQEQQGLQEAVRKLHKQWKDLQGEAPYHLLHLKIAVEKDRFSAAVEECRAELEQETKLAPQEGSEKIIKEHRVFFSDKGPHHLCEKRLQLIEELCGKLPVQDPVRDTCGACHTALKELKASIDNTYTMLVDDPDKWKDYTSRFSEFSSWVSAKKACLKKIKDEPIDTGNHDEVKHMVDEIRNDITKKGESLSWLKSRLKYLIDISSENEAQKRGDELAELSSSFKALVALLSEVEKLLSNFGECVQYKEIVKSSLEGLISGPQESKEEAEMILDSKNLLEAQQLLLHHQQKTKMISAKKRDLQEQMEQAQQGGQAGPGQEELRKLESTLTGLEQSRERQERRIQVSLRKWERFETNKETVVRYLFQTGSSHERFLSFSSLESLSSELEQTKEFSKRTESIATQAENLVKEAAELPLGPRNKRVLQRQAKSIKEQVTTLEDTLEEEYVLHHF
In the case of B2, the binding entry in assay [5] was “no binding”; in assay [6], “binds”; in assay [7], “binds”; in assay [8], “binds”.

B3: GFP-Nesprin-3-ΔC (aa 1-437) (domain or fragment, UniProt Q6ZMZ3 1-437)
chain: MTQQPQDDFDRSVEDAQAWMKAVQDQLQVNDNTQGPRAALEARLWETEKICQLEPEGRVRVDLVLRMAEALLACCPGDQKPGILARLKDIKAQWEETVTYMTHCHSRIEWVWLHWSEYLLARDEFYRWFQKMMVTLEPHIELQLGLKEKQWQLSHAQVLLHNVDNQAVLLDRLLEEAASLFNRIGDPSVDEDAQKRMKAEYDAVKAKAQKRVDLLEQVAREHEEYQAGVDEFQLWLKAVVEKVNGCLGRNCKLPITQRLSTLQDIAKDFPRGEESLETLEEQSAGVIRNTSPLGAEKITGELEEMRKVLEKLRALWEEEEERLRGLLRSRGAWEQQIKQLEAELSEFRMVLQRLAQEGLQPAAKAGTEDELVAHWRRYSATRAALASEEPRVDRLQAQLKELIVFPHNLKPLSDSVIATIQEYQSLKVKSARLRNAA
Consider B3, for which the binding entry in assay [5] is given as “no binding”; in assay [6] it was “binds”; in assay [7], “binds”; in assay [8] it was “binds”.

The values above are taken from publication PMC3296292.
